{"source": "paper PMC8566969", "about": "“Comparison of viral RNA–host protein interactomes across pathogenic RNA viruses informs rapid antiviral drug discovery for SARS-CoV-2” (Cell Research, 2021)", "origin": "cited, not measured here", "biological_target": "SARS-CoV-2 RNA interacting human proteins", "settings": "cited from earlier work", "data": [{"smiles": "CC/C(=C(\\c1ccccc1)c1ccc(OCCN(C)C)cc1)c1ccccc1", "note": "[tamoxifen]", "values": [{"measurement": "ACT_VALUE, ACT_TYPE Kd", "result": 9}]}]}
